Measurements reported in doi:10.1101/254052.
Where two headings read alike, the source gives them in different places. Results are given in words; binding and its absence hold for the method and conditions named. Some binding calls cover weakened binding; strength is not graded here.

Amino acid sequences for entries named in this document (tags omitted).
UniProt O89079: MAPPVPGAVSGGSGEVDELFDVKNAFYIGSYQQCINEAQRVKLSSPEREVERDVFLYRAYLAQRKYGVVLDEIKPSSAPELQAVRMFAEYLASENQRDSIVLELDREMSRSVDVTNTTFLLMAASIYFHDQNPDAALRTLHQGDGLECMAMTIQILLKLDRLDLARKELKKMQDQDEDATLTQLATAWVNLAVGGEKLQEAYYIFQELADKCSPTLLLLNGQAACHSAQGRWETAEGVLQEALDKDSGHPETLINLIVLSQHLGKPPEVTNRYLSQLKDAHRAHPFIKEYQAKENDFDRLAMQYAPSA

T1: α-COP subunit of recombinant murine coatomer (murine) (UniProt Q8CIE6)
T1 sequence: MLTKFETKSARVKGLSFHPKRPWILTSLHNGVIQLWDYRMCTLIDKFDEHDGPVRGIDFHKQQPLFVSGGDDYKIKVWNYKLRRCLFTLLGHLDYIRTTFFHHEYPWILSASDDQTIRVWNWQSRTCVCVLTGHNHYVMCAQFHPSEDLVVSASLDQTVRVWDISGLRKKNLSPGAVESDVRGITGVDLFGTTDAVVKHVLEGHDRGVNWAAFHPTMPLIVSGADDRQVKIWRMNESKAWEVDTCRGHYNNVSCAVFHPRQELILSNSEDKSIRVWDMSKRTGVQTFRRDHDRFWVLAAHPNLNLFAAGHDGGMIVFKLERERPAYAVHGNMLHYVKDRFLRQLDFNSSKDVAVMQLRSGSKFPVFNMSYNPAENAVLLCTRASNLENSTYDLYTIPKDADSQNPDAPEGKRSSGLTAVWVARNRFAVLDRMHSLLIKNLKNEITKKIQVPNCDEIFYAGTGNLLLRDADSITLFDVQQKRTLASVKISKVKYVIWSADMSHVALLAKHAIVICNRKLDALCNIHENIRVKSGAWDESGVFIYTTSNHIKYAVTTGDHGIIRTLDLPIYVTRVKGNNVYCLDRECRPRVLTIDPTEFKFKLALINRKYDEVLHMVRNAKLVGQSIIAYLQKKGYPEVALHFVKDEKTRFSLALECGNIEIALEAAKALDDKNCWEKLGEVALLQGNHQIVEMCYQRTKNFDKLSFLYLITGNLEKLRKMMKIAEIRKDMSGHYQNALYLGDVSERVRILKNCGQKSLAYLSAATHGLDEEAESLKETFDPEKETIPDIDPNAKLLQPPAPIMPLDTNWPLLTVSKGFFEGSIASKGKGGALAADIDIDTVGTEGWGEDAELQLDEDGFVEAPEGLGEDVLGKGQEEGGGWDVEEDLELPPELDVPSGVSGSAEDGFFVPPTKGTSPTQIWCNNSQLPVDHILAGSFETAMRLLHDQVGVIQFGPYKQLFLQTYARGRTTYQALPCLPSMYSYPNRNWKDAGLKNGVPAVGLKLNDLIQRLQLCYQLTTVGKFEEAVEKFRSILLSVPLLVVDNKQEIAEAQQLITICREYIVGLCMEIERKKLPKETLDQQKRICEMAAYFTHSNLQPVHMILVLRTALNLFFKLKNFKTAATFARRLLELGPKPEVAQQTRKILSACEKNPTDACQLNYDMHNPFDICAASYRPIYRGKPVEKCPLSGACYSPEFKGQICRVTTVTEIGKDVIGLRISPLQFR

B1: γ1-COP subunit of recombinant murine coatomer (protein, UniProt Q9QZE5 1-874)
chain: MLKKFDKKDEESGGGSNPLQHLEKSAVLQEARVFNETPINPRKCAHILTKILYLINQGEHLGTTEATEAFFAMTKLFQSNDPTLRRMCYLTIKEMSCIAEDVIIVTSSLTKDMTGKEDNYRGPAVRALCQITDSTMLQAVERYMKQAIVDKVPSVSSSALVSSLHLLKCSFDVVKRWVNEAQEAASSDNIMVQYHALGLLYHVRKNDRLAVSKMISKFTRHGLKSPFAYCMMIRVASKQLEEEDGSRDSPLFDFIESCLRNKHEMVVYEAASAIVNLPGCSAKELAPAVSVLQLFCSSPKAALRYAAVRTLNKVAMKHPSAVTACNLDLENLVTDSNRSIATLAITTLLKTGSESSIDRLMKQISSFMSEISDEFKVVVVQAISALCQKYPRKHAVLMNFLFTMLREEGGFEYKRAIVDCIISIIEENSESKETGLSHLCEFIEDCEFTVLATRILHLLGQEGPKTNNPSKYIRFIYNRVVLEHEEVRAGAVSALAKFGAQNEEMLPSILVLLKRCVMDDDNEVRDRATFYLNVLEQKQKALNAGYILNGLTVSIPGLEKALQQYTLEPSEKPFDLKSVPLATTPMAEQRPESTATAAVKQPEKVAATRQEIFQEQLAAVPEFQGLGPLFKSSPEPVALTESETEYVIRCTKHTFSDHLVFQFDCTNTLNDQTLENVTVQMEPTEAYEVLSYVPARSLPYNQPGTCYTLVALPTEDPTAVACTFSCVMKFTVKDCDPNTGEIDEEGYEDEYVLEDLEVTVADHIQKVMKVNFEAAWDEVGDEFEKEETFTLSTIKTLEEAVGNIVKFLGMHPCERSDKVPENKNTHTLLLAGVFRGGHDILVRSRLLLLDTVTMQVTARSSEELPVDIILASVG
B2: γ2-COP subunit of recombinant murine coatomer (protein, UniProt Q9QXK3 1-871)
chain: MIKKFDKKDEESGSGSNPFQHLEKSAVLQEARIFNETPINPRRCLHILTKILYLLNQGEHFGTMEATEAFFAMTRLFQSNDQTLRRMCYLTIKEMATISEDVIIVTSSLTKDMTGKEDVYRGPAIRALCRITDGTMLQAVERYMKQAIVDKVSSVASSALVSSLHMMKISYDVVKRWINEAQEAASSDNIMVQYHALGVLYHLRKNDRLAVSKMLNKFTKSGLKSQFAYCMLIRIASRLLKESEDGHESPLFDFIESCLRNKHEMVIYEAASAIIHLPNCTARELAPAVSVLQLFCSSPKPALRYAAVRTLNKVAMKHPSAVTACNLDLENLITDSNRSIATLAITTLLKTGSESSVDRLMKQISSFVSEISDEFKVVVVQAISALCHKYPRKHSVMMTFLSNMLRDDGGFEYKKAIVDCIISIVEENPESKEAGLAHLCEFIEDCEHTVLATKILHLLGKEGPRTPVPSKYIRFIFNRVVLENEAVRAAAVSALAKFGAQNESLLPSILVLLQRCMMDTDDEVRDRATFYLNVLQQRQMALNATYIFNGLTVSIPGMEKALHQYTLEPSEKPFDMKSIPLAMAPVFEQKSEITLVTPKPEKLAPSRQDIFQEQLAAIPEFMNLGPLFKSSEPVQLTEAETEYFVRCVKHMFTDHIVFQFDCTNTLNDQLLEKVTVQMEPSDSYEVLCCIPAPSLPYNQPGICYTLVRLPDEDPTAVAGTFSCTMKFTVRDCDPNTGVPDEDGYDDEYVLEDLEVTVSDHIQKILKPNFAAAWEEVGDAFEKEETFALSSTKTLEEAVNNIITFLGMQPCERSDKVPENKNSHSLYLAGVYRGGYDLLVRSRLALADGVTMQVTVRSKERTPVDVILASVG
B3: ζ1-COP subunit of recombinant murine coatomer (protein, UniProt P61924 1-177)
chain: MEALILEPSLYTVKAILILDNDGDRLFAKYYDDTYPSVKEQKAFEKNIFNKTHRTDSEIALLEGLTVVYKSSIDLYFYVIGSSYENELMLMAVLNCLFDSLSQMLRKNVEKRALLENMEGLFLAVDEIVDGGVILESDPQQVVHRVALRGEDVPLTEQTVSQVLQSAKEQIKWSLLR
B4: ζ2-COP subunit of recombinant murine coatomer (protein, UniProt Q9JHH9 1-205)
chain: MQRPEAWPRPHPGEGASAAQAGGAAPPTRATEQREPSLYTIKAVFILDNDGRRLLAKYYDDTFPSVKEQMVFEKNVFNKTSRTESEIAFLGGMTIVYKSSIDIFLYVVGSSSENELMLMSVLACLFDSLSHILRKNVEKRWLLENMDGAFLVLDETVDGGVILESDPQQVIQKVNFRTDDSGLTEQSVAQVLQSAKEQIKWSLLK
B5: β-COP subunit of recombinant murine coatomer (protein, UniProt Q9JIF7 1-953)
chain: MTAAENVCYTLINVPMDSEPPSEISLKNDLEKGDVKSKTEALKKVIIMILNGEKLPGLLMTIIRFVLPLQDHTIKKLLLVFWEIVPKTTPDGRLLHEMILVCDAYRKDLQHPNEFIRGSTLRFLCKLKEAELLEPLMPAIRACLEHRHSYVRRNAVLAIYTIYRNFEHLIPDAPELIHDFLVNEKDASCKRNAFMMLIHADQDRALDYLSTCIDQVQTFGDILQLVIVELIYKVCHANPSERARFIRCIYNLLQSSSPAVKYEAAGTLVTLSSAPTAIKAAAQCYIDLIIKESDNNVKLIVLDRLVELKEHPAHERVLQDLVMDILRVLSTPDLEVRKKTLQLALDLVSSRNVEELVIVLKKEVIKTNNVSEHEDTDKYRQLLVRTLHSCSVRFPDMAANVIPVLMEFLSDSNEAAAADVLEFVREAIQRFDNLRMLIVEKMLEVFHAIKSVKIYRGALWILGEYCSTKEDIQSVMTEVRRSLGEIPIVESEIKKEAGELKPEEEITVGPVQKLVTEMGTYATQSALSSSRPTKKEEDRPPLRGFLLDGDFFVAASLATTLTKIALRYVALVQEKKKQNSFVAEAMLLMATILHLGKSSLPKKPITDDDVDRISLCLKVLSECSPLMNDIFNKECRQSLSQMLSAKLEEEKLSQKKESEKRNVTVQPDDPISFMQLTAKNEMNCKEDQFQLSLLAAMGNTQRKEAADPLASKLNKVTQLTGFSDPVYAEAYVHVNQYDIVLDVLVVNQTSDTLQNCTLELATLGDLKLVEKPSPLTLAPHDFANIKANVKVASTENGIIFGNIVYDVSGAASDRNCVVLSDIHIDIMDYIQPATCTDAEFRQMWAEFEWENKVTVNTNMTDLNDYLQHILKSTNMKCLTPEKALSGYCGFMAANLYARSIFGEDALANVSIEKPVHQGPDAAVTGHIRIRAKSQGMALSLGDKINLSQKKTSL
B6: β'-COP subunit of recombinant murine coatomer (protein, UniProt O55029 1-905)
chain: MPLRLDIKRKLTARSDRVKSVDLHPTEPWMLASLYNGSVCVWNHETQTLVKTFEVCDLPVRAAKFVARKNWVVTGADDMQIRVFNYNTLERVHMFEAHSDYIRCIAVHPTQPFILTSSDDMLIKLWDWDKKWSCSQVFEGHTHYVMQIVINPKDNNQFASASLDRTIKVWQLGSSSPNFTLEGHEKGVNCIDYYSGGDKPYLISGADDRLVKIWDYQNKTCVQTLEGHAQNVSCASFHPELPIIITGSEDGTVRIWHSSTYRLESTLNYGMERVWCVASLRGSNNVALGYDEGSIIVKLGREEPAMSMDANGKIIWAKHSEVQQANLKAMGDTEIKDGERLPLAVKDMGSCEIYPQTIQHNPNGRFVVVCGDGEYIIYTAMALRNKSFGSAQEFAWAHDSSEYAIRESNSIVKIFKNFKEKKSFKPDFGAESIYGGFLLGVRSVNGLAFYDWENTELIRRIEIQPKHIFWSDSGELVCIATEESFFILKYLSEKVLAAQETHEGVTEDGIEDAFEVLGEIQEIVKTGLWVGDCFIYTSSVNRLNYYVGGEIVTIAHLDRTMYLLGYIPKDNRLYLGDKELNIVSYSLLVSVLEYQTAVMRRDFSMADKVLPTIPKEQRTRVAHFLEKQGFKQQALTVSTDPEHRFELALQLGELKIAYQLAVEAESEQKWKQLAELAISKCQFSLAQECLHHAQDYGGLLLLATASGNASMVNKLAEGAERDGKNNVAFMSYFLQGKLDACLELLIRTGRLPEAAFLARTYLPSQVSRVVKLWRENLSKVNQKAAESLADPTEYENLFPGLKEAFVVEEWVKETHADLWPAKQYPLVTPNEERNVMEEAKGFQPSRPTAQQEPDGKPASSPVIMASQTTHKEEKSLLELEVDLDNLELEDIDTTDINLDEDILDD

Tests used:
[1] = target: T1, α-COP subunit of recombinant murine coatomer (murine); assay: co-purification on Strep-Tactin Sepharose
[2] = target: T1, α-COP subunit of recombinant murine coatomer (murine); assay: co-purification on Strep-Tactin Sepharose; remark: listed apart in the source

binding [1]	binding [2]	Molecule
binds		ε-COP subunit of recombinant murine coatomer (from UniProt O89079 1-308)
	binds	B1
	binds	B2
	binds	B3
	binds	B4
	binds	B5
	binds	B6
